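A panel of P. falciparum strains inside erythrocytes is exposed to compounds for three days, then a DNA-binding dye reports the amount of parasite DNA. Each compound was titrated across a series from about 0.000037 to 29 µM. The number is the fitted AC50, the concentration giving a half-maximal change in signal; a lower value means higher potency, whether the curve shows a decrease or an increase. Calls follow the curve class and fit quality: every row here is inconclusive, covering signal-raising curves and weak, poorly fitted, partial or highest-dose-only inhibition curves.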

Values are in nM. Every entry below has the call inconclusive. Only part of the assay is shown, chiefly results filed as inconclusive. A potency from a partial, single-point or poor curve is only a rough figure. Some entries filed as inconclusive have a full curve. The first word of each remark tells which way the curve ran; it can be opposite to the aim of the assay.

Compound,condition,Potency (nM),curve as filed
C#C[C@]1(OC(C)=O)CC[C@H]2[C@@H]3CCC4=C/C(=N/O)CC[C@@H]4[C@H]3CC[C@@]21CC,CP192,30.1,"activator, full curve, poor fit"
C#C[C@]1(OC(C)=O)CC[C@H]2[C@@H]3CCC4=C/C(=N/O)CC[C@@H]4[C@H]3CC[C@@]21CC,PC26,16944,"inhibitor, partial curve, poor fit"
C#C[C@]1(OC(C)=O)CC[C@H]2[C@@H]3CCC4=C/C(=N/O)CC[C@@H]4[C@H]3CC[C@@]21CC,W2,19011,"inhibitor, single point"
C#C[C@]1(OC(C)=O)CC[C@H]2[C@@H]3CCC4=C/C(=N/O)CC[C@@H]4[C@H]3CC[C@@]21CC,DIV17,13459,"inhibitor, partial curve, poor fit"
CCCSc1ccc2nc(NC(=O)OC)[nH]c2c1,CP247,6310,"inhibitor, single point"
CCCSc1ccc2nc(NC(=O)OC)[nH]c2c1,CP191,3548,"inhibitor, partial curve"
CCCSc1ccc2nc(NC(=O)OC)[nH]c2c1,P94_40,3162,"activator, single point"
CCCSc1ccc2nc(NC(=O)OC)[nH]c2c1,DIV30,3220,"inhibitor, partial curve, poor fit"
CCCSc1ccc2nc(NC(=O)OC)[nH]c2c1,CP194,114.2,"inhibitor, partial curve, poor fit"
CCCSc1ccc2nc(NC(=O)OC)[nH]c2c1,W2,361.3,"inhibitor, full curve"
CC(O)C(=O)O (stereo not drawn),CP215,16944,"inhibitor, single point"
CC(O)C(=O)O (stereo not drawn),ATS95,17782,"inhibitor, single point"
CC(O)C(=O)O (stereo not drawn),CP335,2133,"inhibitor, single point"
CC(O)C(=O)O (stereo not drawn),3D7,3981,"inhibitor, single point"
CNS(=O)(=O)Cc1ccc2[nH]cc(CCN(C)C)c2c1,CP335,3381,"inhibitor, single point"
CNS(=O)(=O)Cc1ccc2[nH]cc(CCN(C)C)c2c1,CP215,19011,"inhibitor, partial curve, poor fit"
CNS(=O)(=O)Cc1ccc2[nH]cc(CCN(C)C)c2c1,W2,1069,"inhibitor, partial curve"
C[N+]1(C)CCCCC1COC(=O)C(O)(c1ccccc1)c1ccccc1 (stereo not drawn),CP256,17782,"inhibitor, single point"
C[N+]1(C)CCCCC1COC(=O)C(O)(c1ccccc1)c1ccccc1 (stereo not drawn),P93_24,17782,"inhibitor, single point"
C[N+]1(C)CCCCC1COC(=O)C(O)(c1ccccc1)c1ccccc1 (stereo not drawn),P94_40,11220,"inhibitor, single point"
CC(C)(Cc1c[nH]c2ccccc12)NCC(O)COc1ccccc1C#N (stereo not drawn),SC27B,12589,"inhibitor, single point"
CC(C)(Cc1c[nH]c2ccccc12)NCC(O)COc1ccccc1C#N (stereo not drawn),AS120,11220,"inhibitor, partial curve"
CC(C)(Cc1c[nH]c2ccccc12)NCC(O)COc1ccccc1C#N (stereo not drawn),3D7,10000,"inhibitor, single point"
CC(C)(Cc1c[nH]c2ccccc12)NCC(O)COc1ccccc1C#N (stereo not drawn),CP185,12589,"inhibitor, single point"
CC(C)(Cc1c[nH]c2ccccc12)NCC(O)COc1ccccc1C#N (stereo not drawn),N140,10000,"inhibitor, single point"
CC(C)(Cc1c[nH]c2ccccc12)NCC(O)COc1ccccc1C#N (stereo not drawn),C2A,12589,"inhibitor, single point"
CC(C)(Cc1c[nH]c2ccccc12)NCC(O)COc1ccccc1C#N (stereo not drawn),PAD,1259,"inhibitor, partial curve"
CC(C)(Cc1c[nH]c2ccccc12)NCC(O)COc1ccccc1C#N (stereo not drawn),P93_24,12589,"inhibitor, single point"
CC(C)(Cc1c[nH]c2ccccc12)NCC(O)COc1ccccc1C#N (stereo not drawn),CP250,17782,"inhibitor, single point"
CC(C)(Cc1c[nH]c2ccccc12)NCC(O)COc1ccccc1C#N (stereo not drawn),CP247,8912,"inhibitor, single point"
CC(C)(Cc1c[nH]c2ccccc12)NCC(O)COc1ccccc1C#N (stereo not drawn),DFO2036,10000,"inhibitor, single point"
CC(C)(Cc1c[nH]c2ccccc12)NCC(O)COc1ccccc1C#N (stereo not drawn),CP266,10690,"inhibitor, partial curve, poor fit"
CC(C)(Cc1c[nH]c2ccccc12)NCC(O)COc1ccccc1C#N (stereo not drawn),HB3,10000,"inhibitor, single point"
CC(C)(Cc1c[nH]c2ccccc12)NCC(O)COc1ccccc1C#N (stereo not drawn),CP329,19011,"inhibitor, single point"
CN(C)CC/C=C1\c2ccccc2Sc2ccc(Cl)cc21,TAB113,14125,"inhibitor, partial curve, poor fit"
CN(C)CC/C=C1\c2ccccc2Sc2ccc(Cl)cc21,CP238,8912,"inhibitor, partial curve"
CN(C)CC/C=C1\c2ccccc2Sc2ccc(Cl)cc21,JCK,11220,"inhibitor, partial curve"
CN(C)CC/C=C1\c2ccccc2Sc2ccc(Cl)cc21,CP256,8912,"inhibitor, partial curve"
CN(C)CC/C=C1\c2ccccc2Sc2ccc(Cl)cc21,C2A,4467,"inhibitor, partial curve"
CN(C)CC/C=C1\c2ccccc2Sc2ccc(Cl)cc21,GB4,9528,"inhibitor, partial curve"
CN(C)CC/C=C1\c2ccccc2Sc2ccc(Cl)cc21,CP335,4776,"inhibitor, partial curve"
CN(C)CC/C=C1\c2ccccc2Sc2ccc(Cl)cc21,CP247,8912,"inhibitor, single point"
CN(C)CC/C=C1\c2ccccc2Sc2ccc(Cl)cc21,HB3,17782,"inhibitor, single point"
CN(C)CC/C=C1\c2ccccc2Sc2ccc(Cl)cc21,CP191,6310,"inhibitor, partial curve"
CN(C)CC/C=C1\c2ccccc2Sc2ccc(Cl)cc21,CP185,10000,"inhibitor, single point"
CN(C)CC/C=C1\c2ccccc2Sc2ccc(Cl)cc21,CP194,13459,"inhibitor, partial curve"
CN(C)CC/C=C1\c2ccccc2Sc2ccc(Cl)cc21,CP215,11995,"inhibitor, single point"

For reference, 3 entries once more:

| Compound | condition | Potency (nM) | curve as filed |
|---|---|---|---|
| `CC(C)(Cc1c[nH]c2ccccc12)NCC(O)COc1ccccc1C#N` (stereo not drawn) | P93_24 | 12589 | inhibitor, single point |
| `CC(C)(Cc1c[nH]c2ccccc12)NCC(O)COc1ccccc1C#N` (stereo not drawn) | HB3 | 10000 | inhibitor, single point |
| `CN(C)CC/C=C1\c2ccccc2Sc2ccc(Cl)cc21` | CP185 | 10000 | inhibitor, single point |

From PubChem BioAssay record AID504749 (NCATS, 2011).